Positions count from the first letter of the chain named. In names and notes the source's numbering stands. Results are given in words; binding and its absence hold for the method and conditions named. For some of these results: In cells and extracts the contact can be indirect. Some entries that bind do so weakly or less than the wild type. For some of these results: Tags and fused reporters may be left off the sequences shown.

Sequences of proteins named here, by UniProt entry; tags and fusion partners are left off.
UniProt P15172: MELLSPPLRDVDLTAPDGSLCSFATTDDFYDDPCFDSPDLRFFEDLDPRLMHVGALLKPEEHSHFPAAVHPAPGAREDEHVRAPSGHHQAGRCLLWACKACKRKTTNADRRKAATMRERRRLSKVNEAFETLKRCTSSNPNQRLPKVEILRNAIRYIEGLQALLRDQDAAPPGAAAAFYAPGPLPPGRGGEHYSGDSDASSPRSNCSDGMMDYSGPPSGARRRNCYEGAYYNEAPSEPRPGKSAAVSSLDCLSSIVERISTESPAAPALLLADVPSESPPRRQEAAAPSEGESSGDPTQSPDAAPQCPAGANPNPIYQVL
UniProt O43353: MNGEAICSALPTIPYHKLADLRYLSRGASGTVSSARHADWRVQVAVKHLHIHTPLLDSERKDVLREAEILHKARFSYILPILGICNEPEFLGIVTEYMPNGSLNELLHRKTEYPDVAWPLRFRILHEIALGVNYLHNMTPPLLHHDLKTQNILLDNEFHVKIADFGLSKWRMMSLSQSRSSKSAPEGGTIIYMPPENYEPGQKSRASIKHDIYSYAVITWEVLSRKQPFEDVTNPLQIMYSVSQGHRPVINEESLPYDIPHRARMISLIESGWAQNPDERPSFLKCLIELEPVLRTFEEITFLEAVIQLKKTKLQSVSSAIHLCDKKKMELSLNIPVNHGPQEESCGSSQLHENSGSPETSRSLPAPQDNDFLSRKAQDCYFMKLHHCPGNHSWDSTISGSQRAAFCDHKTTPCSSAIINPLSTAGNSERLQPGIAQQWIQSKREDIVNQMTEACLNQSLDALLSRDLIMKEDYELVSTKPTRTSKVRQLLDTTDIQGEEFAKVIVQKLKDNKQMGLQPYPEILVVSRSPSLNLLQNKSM
UniProt Q7Z434: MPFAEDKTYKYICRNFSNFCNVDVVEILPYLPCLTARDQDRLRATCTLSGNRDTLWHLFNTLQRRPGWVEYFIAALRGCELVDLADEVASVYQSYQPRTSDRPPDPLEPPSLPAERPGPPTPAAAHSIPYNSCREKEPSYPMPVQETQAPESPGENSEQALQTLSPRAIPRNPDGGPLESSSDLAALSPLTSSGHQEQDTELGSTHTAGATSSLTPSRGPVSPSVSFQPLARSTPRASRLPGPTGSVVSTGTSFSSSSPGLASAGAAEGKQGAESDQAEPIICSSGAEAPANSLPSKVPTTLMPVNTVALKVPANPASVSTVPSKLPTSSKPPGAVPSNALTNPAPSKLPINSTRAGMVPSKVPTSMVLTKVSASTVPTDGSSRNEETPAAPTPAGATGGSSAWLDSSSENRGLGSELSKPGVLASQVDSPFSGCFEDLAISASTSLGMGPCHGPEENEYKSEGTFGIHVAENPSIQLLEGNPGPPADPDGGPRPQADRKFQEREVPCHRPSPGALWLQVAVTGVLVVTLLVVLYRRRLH

Experimental findings from article PMC11996864, “A small-molecule inhibitor of BCL10-MALT1 interaction abrogates progression of diffuse large B cell lymphoma” (The Journal of Clinical Investigation, 2025) are described below.

One test addresses MyoD (UniProt P15172). Briefly: ELISA; same ELISA-based platform; MyoD immobilised, Id1 in solution; with M1i-124 or M1i-124d1. Background: An ELISA detects its analyte on a solid surface through an enzyme-linked reagent.
The target in test [1] is T1, Myc-tagged BCL10 (UniProt O95999).
T1 sequence: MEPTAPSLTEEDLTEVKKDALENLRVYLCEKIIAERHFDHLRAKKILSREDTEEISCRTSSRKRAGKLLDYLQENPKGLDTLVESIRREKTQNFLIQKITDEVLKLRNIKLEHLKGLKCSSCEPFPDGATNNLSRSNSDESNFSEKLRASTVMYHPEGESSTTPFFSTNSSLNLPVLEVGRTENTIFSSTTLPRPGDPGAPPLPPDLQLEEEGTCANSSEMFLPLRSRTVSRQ
Put plainly: co-IP; self-association of BCL10 (WT or E53R) in the authors' co-IP system (Supplemental Figure 1C).

The target in test [2] is T2, BCL10 E53R mutant (UniProt O95999).
T2 sequence: T1 sequence with E53R
The test is described as above.

The target in test [3] is T2, BCL10 E53R mutant. Briefly: co-IP; BCL10-/- cells reconstituted with the E53R mutant of BCL10; MALT1(Ig1-2) (Supplemental Figure 1D).
Test [4] deals with T1, Myc-tagged BCL10. Put plainly: co-IP; HA-tagged MALT1 proteins or fragments with Myc-tagged BCL10 (or Myc-tagged RICK, MAVS), expressed in transiently transfected 293T cells.
In the next test the target is Myc-tagged RICK (UniProt O43353). The description is as above.
The next test has as its target Myc-tagged MAVS (UniProt Q7Z434). Described as above.

B1: inhibitor of DNA binding 1 (protein, UniProt P41134 1-155)
chain: MKVASGSTATAAAGPSCALKAGKTASGAGEVVRCLSEQSVAISRCAGGAGARLPALLDEQQVNVLLYDMNGCYSRLKELVPTLPQNRKVSKVEILQHVIDYIRDLQLELNSESEVGTPGGRGLPVRAPLSTLNGEISALTAEAACVPADDRILCR
Consider B1, for which the binding result in the test with MyoD is given as “binds”.

B2: Myc-tagged BCL10 (protein, UniProt O95999 1-233)
chain: T1 sequence
In the case of B2, the binding result with Myc-tagged BCL10 [1] is given as “binds”.

B3: BCL10 E53R mutant (protein, UniProt O95999 1-233)
chain: T1 sequence with E53R
B3: the binding result with BCL10 E53R mutant [2] is “no binding”.

B4: HA-tagged MALT1(Ig1-2) (domain or fragment, UniProt Q9UDY8 128-308)
chain: KITVNPESKAVLAGQFVKLCCRATGHPFVQYQWFKMNKEIPNGNTSELIFNAVHVKDAGFYVCRVNNNFTFEFSQWSQLDVCDIPESFQRSVDGVSESKLQICVEPTSQKLMPGSTLVLQCVAVGSPIPHYQWFKNELPLTHETKKLYMVPYVDLEHQGTYWCHVYNDRDSQDSKKVEIII
Consider B4, for which the binding entry was “binds” in the test with BCL10 E53R mutant [3], “binds” with Myc-tagged BCL10 [4], “no binding” with Myc-tagged RICK and “no binding” in the test with Myc-tagged MAVS.
